The target in this assay is T1, recombinant human HDAC3 (Homo sapiens, UniProt O15379).
T1 construct: purchased BPS Biosciences
In words: Recombinant human HDAC3 enzymatic assay (Ac-peptide-AMC, fluorescence). Format: biochemical. Conditions: IC50 ± SD HDAC3, 10-dose IC50 mode in duplicate, threefold serial dilution; 60 min reaction.

Chains of the proteins cited; added tags and fusions are not shown. Lines headed by an entry give the natural chain unless they say otherwise; changes in a name come on top.
UniProt O15379: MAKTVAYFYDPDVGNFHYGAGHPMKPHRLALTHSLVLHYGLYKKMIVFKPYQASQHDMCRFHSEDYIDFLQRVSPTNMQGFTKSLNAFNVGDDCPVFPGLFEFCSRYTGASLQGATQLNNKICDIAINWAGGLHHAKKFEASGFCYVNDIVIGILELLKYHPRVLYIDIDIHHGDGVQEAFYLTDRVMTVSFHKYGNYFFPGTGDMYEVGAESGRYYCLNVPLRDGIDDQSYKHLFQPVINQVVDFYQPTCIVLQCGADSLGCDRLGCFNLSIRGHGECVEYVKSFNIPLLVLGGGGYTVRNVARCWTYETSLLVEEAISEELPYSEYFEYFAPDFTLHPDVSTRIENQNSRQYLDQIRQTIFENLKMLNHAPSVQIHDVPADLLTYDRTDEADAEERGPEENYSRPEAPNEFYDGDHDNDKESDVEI

Turning to `CCCCCCCC(=O)SCC/C=C/[C@@H]1CC(=O)NCc2nc(cs2)C2=N[C@@](C)(CS2)C(=O)N[C@@H](C(C)C)C(=O)O1` [Largazole, reference compound], the half-inhibitory concentration (IC50) (as a rule, the point on the concentration scale where inhibition reaches its midpoint) turned out to be 2 ± 0.028 µM.

(Values after paper PMC6628159 (Marine Drugs, 2019).)
